Values of other authors, collected in US20240117436A1, “METHODS OF TREATING LIPEDEMA INCLUDING AKR1C2 AS A THERAPEUTIC TARGET” (MAGI EUREGIO SCS, priority 2021, published 2024).
At least one structure is not confirmed: it was looked up by name or label, or the drawing left a doubt.

Target: T1, AKR1C1 (Homo sapiens, UniProt Q04828)
T1 sequence (Q04828 1-323): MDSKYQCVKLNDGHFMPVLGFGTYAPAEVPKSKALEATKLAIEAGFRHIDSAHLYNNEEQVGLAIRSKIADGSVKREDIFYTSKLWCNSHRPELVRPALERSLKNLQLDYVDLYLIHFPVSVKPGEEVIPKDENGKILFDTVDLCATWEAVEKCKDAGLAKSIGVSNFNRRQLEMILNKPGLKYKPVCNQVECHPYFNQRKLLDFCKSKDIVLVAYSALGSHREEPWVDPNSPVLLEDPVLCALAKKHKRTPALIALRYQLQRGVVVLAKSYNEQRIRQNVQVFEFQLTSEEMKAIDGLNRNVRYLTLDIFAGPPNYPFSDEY
Settings: AKR1C1, known from the literature

Row | SMILES | Enzyme activity (inhibition/activation)
1 | Cc1ccc(-c2cc(C(F)(F)F)nn2-c2ccc(S(N)(=O)=O)cc2)cc1 [Celecoxib] | inhibition
2 | C[C@H]1C[C@H]2[C@@H]3CCC4=CC(=O)C=C[C@]4(C)[C@@]3(F)[C@@H](O)C[C@]2(C)[C@@]1(O)C(=O)CO [Betamethasone] | inhibition
